Test results published in publication PMC7380572.
Results are given in words; binding and its absence hold for the method and conditions named. A result given as binding can be weak or reduced; the word gives no strength. For some of these results: In cells and extracts the contact can be indirect. For some of these results: Tags and fused reporters may be left off the sequences shown. One block for each binder: values may come before it.

Experiments:
[1] = target: T25-ZipN (Anabaena sp. strain PCC 7120); assay: two-hybrid; bacterial adenylate cyclase two-hybrid (BACTH) in E. coli BTH101; beta-galactosidase activity in liquid cultures at 30°C with IPTG
[2] = target: SepF-T25 (Anabaena sp. strain PCC 7120); assay: as above
[3] = target: 6His-ZipN (Anabaena sp. strain PCC 7120); assay: pull-down; copurification: E. coli cell-free extracts mixed and incubated overnight at 4°C in buffer A (50 mM Tris-HCl pH 7.5, 150 mM KCl, 10% glycerol), passed through a His-Select column, washed with 300 mM imidazole, eluted with 1 M imidazole; Western blot against Strep-tag and MALDI-TOF
[4] = target: SepJ-T18 (Anabaena sp. strain PCC 7120); assay: two-hybrid; bacterial adenylate cyclase two-hybrid (BACTH) in E. coli BTH101; beta-galactosidase activity in liquid cultures at 30°C with IPTG

binding [1]: binds
binding [2]: binds
B1: T18-PatA (protein, UniProt P39048 1-379)
chain: MKTLPITRYRFFQKIQPLSLLKKITGKTITGCLQVFSTSGTWSIYVEEGKLIYACYSERMFEPLYRHLGNLSPQIATLPKEINEQLRAIFETGIENQAIPNPDYLAICWLVNQKYISSSQAAVLIEQLALEVVESFLMLEEGSYEFIPESFLDDLPKFCYLNVRLLVEQCQQHGRVPEAFRREASSQEISSSTEHNQIPVNNRRSTKFTSPPHTQPKPEPRLPQINTNKSTEYSKRYASQPNTVNHGYSQTSATSTDKKIYTIFCIDENPIVLNNIKNFLDDQIFAVIGVTDSLKALMEILCTKPDIILINVDMPDLDGYELCSLLRKHSYFKNTPVIMVTEKAGLVDRARAKIVRASGHLTKPFNQGDLLKVIFKHIT

binding [3]: binds
B2: Strep-tag-PatA (protein, UniProt P39048 1-379)
chain: MKTLPITRYRFFQKIQPLSLLKKITGKTITGCLQVFSTSGTWSIYVEEGKLIYACYSERMFEPLYRHLGNLSPQIATLPKEINEQLRAIFETGIENQAIPNPDYLAICWLVNQKYISSSQAAVLIEQLALEVVESFLMLEEGSYEFIPESFLDDLPKFCYLNVRLLVEQCQQHGRVPEAFRREASSQEISSSTEHNQIPVNNRRSTKFTSPPHTQPKPEPRLPQINTNKSTEYSKRYASQPNTVNHGYSQTSATSTDKKIYTIFCIDENPIVLNNIKNFLDDQIFAVIGVTDSLKALMEILCTKPDIILINVDMPDLDGYELCSLLRKHSYFKNTPVIMVTEKAGLVDRARAKIVRASGHLTKPFNQGDLLKVIFKHIT

binding [4]: binds weakly
B3: T25-PatA (protein, UniProt P39048 1-379)
chain: MKTLPITRYRFFQKIQPLSLLKKITGKTITGCLQVFSTSGTWSIYVEEGKLIYACYSERMFEPLYRHLGNLSPQIATLPKEINEQLRAIFETGIENQAIPNPDYLAICWLVNQKYISSSQAAVLIEQLALEVVESFLMLEEGSYEFIPESFLDDLPKFCYLNVRLLVEQCQQHGRVPEAFRREASSQEISSSTEHNQIPVNNRRSTKFTSPPHTQPKPEPRLPQINTNKSTEYSKRYASQPNTVNHGYSQTSATSTDKKIYTIFCIDENPIVLNNIKNFLDDQIFAVIGVTDSLKALMEILCTKPDIILINVDMPDLDGYELCSLLRKHSYFKNTPVIMVTEKAGLVDRARAKIVRASGHLTKPFNQGDLLKVIFKHIT
